These are yes or no findings as the source states them, for the method shown. Some entries that bind do so weakly or less than the wild type.
T1: human B7-H3 (form not stated) (human) (UniProt Q5ZPR3)
T1 sequence (looked up): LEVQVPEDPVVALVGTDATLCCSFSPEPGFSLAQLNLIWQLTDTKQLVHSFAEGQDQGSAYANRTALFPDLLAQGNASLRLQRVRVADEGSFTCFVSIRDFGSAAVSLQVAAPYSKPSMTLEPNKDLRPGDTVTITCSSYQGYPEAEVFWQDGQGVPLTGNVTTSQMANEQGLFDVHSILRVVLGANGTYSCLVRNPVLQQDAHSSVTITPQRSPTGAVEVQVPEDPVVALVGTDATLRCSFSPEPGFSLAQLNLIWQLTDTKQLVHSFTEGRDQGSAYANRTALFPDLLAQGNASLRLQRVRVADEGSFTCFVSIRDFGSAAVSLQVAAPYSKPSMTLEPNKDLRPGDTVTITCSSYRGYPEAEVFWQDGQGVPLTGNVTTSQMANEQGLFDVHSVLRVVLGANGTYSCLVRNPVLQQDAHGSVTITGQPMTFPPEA

B1: BRCA84D (antibody, IgG1, V domains shown)
VH: DVQLVESGGGLVQPGGSRKLSCAASGFTFSSFGMHWVRQAPEKGLEWVAYISSDSSAIYYADTVKGRFTISRDNPKNTLFLQMTSLRSEDTAMYYCGRGRENIYYGSRLDYWGQGTTLTVSS
VL: DIAMTQSQKFMSTSVGDRVSVTCKASQNVDTNVAWYQQKPGQSPKALIYSASYRYSGVPDRFTGSGSGTDFTLTINNVQSEDLAEYFCQQYNNYPFTFGSGTKLEIK
notes: murine mAb, IgG1/k; fluorescein-labeled in the FACS MFI columns
B2: BRCA69D (antibody, IgG1, V domains shown)
VH: QVQLQQSGAELARPGASVKLSCKASGYTFTSYWMQWVKQRPGQGLEWIGTIYPGDGDTRYTQKFKGKATLTADKSSSTAYMQLSSLASEDSAVYYCARRGIPRLWYFDVWGAGTTVTVSS
VL: DIQMTQTTSSLSASLGDRVTISCRASQDISNYLNWYQQKPDGTVKLLIYYTSRLHSGVPSRFSGSGSGTDYSLTIDNLEQEDIATYFCQQGNTLPPTFGGGTKLEIK
B3: PRCA157 (antibody, IgG1, V domains shown)
VH: EVQQVESGGDLVKPGGSLKLSCAASGFTFSSYGMSWVRQTPDKRLEWVATINSGGSNTYYPDSLKGRFTISRDNAKNTLYLQMRSLKSEDTAMYYCARHDGGAMDYWGQGTSVTVSS
VL: DIQMTQSPASLSVSVGETVTITCRASESIYSYLAWYQQKQGKSPQLLVYNTKTLPEGVPSRFSGSGSGTQFSLKINSLQPEDFGRYYCQHHYGTPPWTFGGGTNLEIK
notes: murine mAb, IgG1/k
B4: antibody containing hBRCA84D-5VL and chimeric BRCA84D-HC (antibody, V domains shown)
VH: B1 VH
VL: DIQLTQSPSFLSASVGDRVTITCKASQNVDTNVAWYQQKPGQAPKALIYSASYRYSGVPSRFSGSGSGTDFTLTISSLQPEDFATYYCQQYNNYPFTFGQGTKLEIK
B5: antibody containing hBRCA84D-5VL and hBRCA84D-2VH (antibody, V domains shown)
VH: EVQLVESGGGLVQPGGSLRLSCAASGFTFSSFGMHWVRQAPGKGLEWVAYISSDSSAIYYADTVKGRFTISRDNAKNSLYLQMNSLRDEDTAVYYCGRGRENIYYGSRLDYWGQGTTVTVSS
VL: B4 VL

How the values were obtained:
[1] = biological target: T1, human B7-H3 (form not stated) (human); test: Binding BIACORE grade
[2] = biological target: T1, human B7-H3 (form not stated) (human); test: BIACORE analysis grade
[3] = biological target: T1, human B7-H3 (form not stated) (human); test: BIACORE grade
[4] = biological target: T1, human B7-H3 (form not stated) (human); test: summary of activities
[5] = biological target: T1, human B7-H3 (form not stated) (human); test: summary of panel
[6] = biological target: T1, human B7-H3 (form not stated) (human); test: relative binding to human B7-H3 (FIG. 12)
[7] = biological target: T1, human B7-H3 (form not stated) (human); test: relative binding to human B7-H3 (FIG. 13)

Binder | binding [1] | binding [2] | binding [3] | binding [4] | binding [5] | binding [6] | binding [7]
B1 | binds | binds | binds | binds | binds | – | –
B2 | binds | binds | binds | binds | binds | – | –
B3 | – | – | binds | – | binds | – | –
B4 | – | – | – | – | – | binds | –
B5 | – | – | – | – | – | – | binds

From US20130149236A1 (MacroGenics, published 2013)
